The text below walks through data of the supplement of paper PMC12067093, “Discovery and optimisation of a covalent ligand for TRIM25 and its application to targeted protein ubiquitination” (Chemical Science, 2025).

Amino acid sequences for entries named in this document (tags omitted). A change or cut given only in a name is not applied to a line headed by its entry.
UniProt Q9Y4X5: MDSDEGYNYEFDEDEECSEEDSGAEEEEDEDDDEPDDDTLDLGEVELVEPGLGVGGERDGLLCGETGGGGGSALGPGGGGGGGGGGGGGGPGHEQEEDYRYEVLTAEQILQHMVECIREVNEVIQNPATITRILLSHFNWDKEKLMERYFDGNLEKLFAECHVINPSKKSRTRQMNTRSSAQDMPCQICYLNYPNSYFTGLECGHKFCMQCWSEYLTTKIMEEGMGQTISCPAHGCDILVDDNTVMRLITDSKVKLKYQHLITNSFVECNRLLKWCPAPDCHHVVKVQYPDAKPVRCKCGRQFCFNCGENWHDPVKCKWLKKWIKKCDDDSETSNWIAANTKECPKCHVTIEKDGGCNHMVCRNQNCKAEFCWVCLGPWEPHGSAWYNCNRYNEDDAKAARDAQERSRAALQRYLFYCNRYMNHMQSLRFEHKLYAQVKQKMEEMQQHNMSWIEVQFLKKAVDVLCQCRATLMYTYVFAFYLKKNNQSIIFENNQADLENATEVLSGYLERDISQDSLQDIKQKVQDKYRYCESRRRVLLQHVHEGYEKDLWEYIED
UniProt Q14CB8: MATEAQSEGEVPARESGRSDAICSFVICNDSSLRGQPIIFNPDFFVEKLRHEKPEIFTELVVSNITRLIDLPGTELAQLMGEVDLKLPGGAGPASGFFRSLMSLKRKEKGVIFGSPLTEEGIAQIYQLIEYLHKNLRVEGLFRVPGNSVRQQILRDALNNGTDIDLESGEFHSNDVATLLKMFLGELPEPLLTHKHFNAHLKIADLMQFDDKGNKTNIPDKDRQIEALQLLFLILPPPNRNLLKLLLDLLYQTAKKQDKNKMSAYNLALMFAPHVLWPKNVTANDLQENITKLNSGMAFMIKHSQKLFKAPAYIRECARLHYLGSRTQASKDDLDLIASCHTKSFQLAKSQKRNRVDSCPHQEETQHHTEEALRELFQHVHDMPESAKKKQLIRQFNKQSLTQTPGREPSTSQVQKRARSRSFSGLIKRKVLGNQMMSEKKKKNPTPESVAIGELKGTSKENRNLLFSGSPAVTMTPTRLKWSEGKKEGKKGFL
UniProt P52566: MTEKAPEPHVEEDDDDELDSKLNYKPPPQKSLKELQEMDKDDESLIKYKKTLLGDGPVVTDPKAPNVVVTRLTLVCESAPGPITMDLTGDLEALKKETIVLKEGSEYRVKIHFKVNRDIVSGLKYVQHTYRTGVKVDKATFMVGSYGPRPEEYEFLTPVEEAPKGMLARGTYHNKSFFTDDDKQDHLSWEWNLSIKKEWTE
UniProt Q96P48: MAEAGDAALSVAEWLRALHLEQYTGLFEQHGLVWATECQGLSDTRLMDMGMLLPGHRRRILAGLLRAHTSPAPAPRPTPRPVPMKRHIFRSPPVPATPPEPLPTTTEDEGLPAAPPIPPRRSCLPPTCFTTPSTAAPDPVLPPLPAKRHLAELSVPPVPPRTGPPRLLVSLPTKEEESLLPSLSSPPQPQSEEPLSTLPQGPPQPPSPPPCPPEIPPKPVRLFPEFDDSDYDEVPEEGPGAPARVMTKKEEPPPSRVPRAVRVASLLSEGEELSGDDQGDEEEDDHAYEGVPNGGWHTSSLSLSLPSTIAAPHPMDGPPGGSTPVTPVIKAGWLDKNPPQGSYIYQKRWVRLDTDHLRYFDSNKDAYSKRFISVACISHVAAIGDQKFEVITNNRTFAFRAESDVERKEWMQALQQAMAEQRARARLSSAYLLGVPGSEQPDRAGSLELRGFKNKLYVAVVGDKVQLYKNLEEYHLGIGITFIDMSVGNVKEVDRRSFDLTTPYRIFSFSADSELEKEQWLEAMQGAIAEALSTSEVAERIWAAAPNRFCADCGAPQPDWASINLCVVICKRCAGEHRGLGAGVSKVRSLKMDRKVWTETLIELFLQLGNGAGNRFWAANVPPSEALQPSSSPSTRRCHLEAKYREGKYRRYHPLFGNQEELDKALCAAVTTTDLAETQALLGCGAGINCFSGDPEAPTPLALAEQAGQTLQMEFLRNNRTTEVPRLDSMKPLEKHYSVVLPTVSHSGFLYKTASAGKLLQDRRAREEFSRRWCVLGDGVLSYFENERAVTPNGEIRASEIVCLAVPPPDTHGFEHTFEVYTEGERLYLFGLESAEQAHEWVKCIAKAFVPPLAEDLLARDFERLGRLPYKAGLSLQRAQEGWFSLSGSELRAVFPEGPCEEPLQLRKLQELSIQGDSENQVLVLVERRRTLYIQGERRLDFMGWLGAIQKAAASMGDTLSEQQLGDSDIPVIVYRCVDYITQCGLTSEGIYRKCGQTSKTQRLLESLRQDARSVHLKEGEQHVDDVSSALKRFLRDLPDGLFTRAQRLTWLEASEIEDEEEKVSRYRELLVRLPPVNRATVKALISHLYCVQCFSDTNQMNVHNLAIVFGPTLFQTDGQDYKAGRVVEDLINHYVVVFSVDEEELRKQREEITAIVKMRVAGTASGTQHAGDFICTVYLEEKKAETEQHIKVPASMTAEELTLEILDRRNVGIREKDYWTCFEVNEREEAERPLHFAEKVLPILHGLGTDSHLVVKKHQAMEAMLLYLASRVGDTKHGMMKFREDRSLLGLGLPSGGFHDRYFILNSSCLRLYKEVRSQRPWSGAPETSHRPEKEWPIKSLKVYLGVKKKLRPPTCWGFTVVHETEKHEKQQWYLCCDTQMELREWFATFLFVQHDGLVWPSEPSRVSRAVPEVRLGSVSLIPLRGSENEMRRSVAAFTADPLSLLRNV
UniProt P48444: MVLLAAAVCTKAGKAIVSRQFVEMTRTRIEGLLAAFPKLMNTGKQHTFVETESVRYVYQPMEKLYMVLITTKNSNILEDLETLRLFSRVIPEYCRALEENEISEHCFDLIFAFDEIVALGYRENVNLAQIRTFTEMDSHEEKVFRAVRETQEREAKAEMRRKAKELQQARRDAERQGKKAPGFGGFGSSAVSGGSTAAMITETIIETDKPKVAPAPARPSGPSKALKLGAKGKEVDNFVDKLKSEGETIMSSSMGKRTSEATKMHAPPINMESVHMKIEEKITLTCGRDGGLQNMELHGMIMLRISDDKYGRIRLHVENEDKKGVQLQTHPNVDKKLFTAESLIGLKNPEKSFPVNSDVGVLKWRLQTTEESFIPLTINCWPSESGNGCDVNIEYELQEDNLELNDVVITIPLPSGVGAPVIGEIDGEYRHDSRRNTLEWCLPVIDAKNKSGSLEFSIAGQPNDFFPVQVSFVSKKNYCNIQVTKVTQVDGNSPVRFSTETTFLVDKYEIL
UniProt Q8IUR7, whole entry, looked up: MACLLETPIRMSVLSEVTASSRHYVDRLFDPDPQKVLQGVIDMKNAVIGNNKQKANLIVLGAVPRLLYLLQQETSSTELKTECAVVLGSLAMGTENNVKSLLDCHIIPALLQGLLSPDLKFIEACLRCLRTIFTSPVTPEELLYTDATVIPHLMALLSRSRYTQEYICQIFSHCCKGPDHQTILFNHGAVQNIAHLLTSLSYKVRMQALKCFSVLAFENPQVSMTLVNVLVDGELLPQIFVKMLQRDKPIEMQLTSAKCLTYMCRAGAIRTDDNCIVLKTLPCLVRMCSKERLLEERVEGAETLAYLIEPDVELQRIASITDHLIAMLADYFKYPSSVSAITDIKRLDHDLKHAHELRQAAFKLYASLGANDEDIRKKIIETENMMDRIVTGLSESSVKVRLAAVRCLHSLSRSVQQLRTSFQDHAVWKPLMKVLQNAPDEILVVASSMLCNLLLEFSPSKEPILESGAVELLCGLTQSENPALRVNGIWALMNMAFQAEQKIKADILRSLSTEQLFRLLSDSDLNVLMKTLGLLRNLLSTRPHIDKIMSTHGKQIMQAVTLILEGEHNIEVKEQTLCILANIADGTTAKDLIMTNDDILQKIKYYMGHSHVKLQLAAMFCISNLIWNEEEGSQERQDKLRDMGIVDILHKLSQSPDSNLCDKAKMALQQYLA
UniProt Q0VD83: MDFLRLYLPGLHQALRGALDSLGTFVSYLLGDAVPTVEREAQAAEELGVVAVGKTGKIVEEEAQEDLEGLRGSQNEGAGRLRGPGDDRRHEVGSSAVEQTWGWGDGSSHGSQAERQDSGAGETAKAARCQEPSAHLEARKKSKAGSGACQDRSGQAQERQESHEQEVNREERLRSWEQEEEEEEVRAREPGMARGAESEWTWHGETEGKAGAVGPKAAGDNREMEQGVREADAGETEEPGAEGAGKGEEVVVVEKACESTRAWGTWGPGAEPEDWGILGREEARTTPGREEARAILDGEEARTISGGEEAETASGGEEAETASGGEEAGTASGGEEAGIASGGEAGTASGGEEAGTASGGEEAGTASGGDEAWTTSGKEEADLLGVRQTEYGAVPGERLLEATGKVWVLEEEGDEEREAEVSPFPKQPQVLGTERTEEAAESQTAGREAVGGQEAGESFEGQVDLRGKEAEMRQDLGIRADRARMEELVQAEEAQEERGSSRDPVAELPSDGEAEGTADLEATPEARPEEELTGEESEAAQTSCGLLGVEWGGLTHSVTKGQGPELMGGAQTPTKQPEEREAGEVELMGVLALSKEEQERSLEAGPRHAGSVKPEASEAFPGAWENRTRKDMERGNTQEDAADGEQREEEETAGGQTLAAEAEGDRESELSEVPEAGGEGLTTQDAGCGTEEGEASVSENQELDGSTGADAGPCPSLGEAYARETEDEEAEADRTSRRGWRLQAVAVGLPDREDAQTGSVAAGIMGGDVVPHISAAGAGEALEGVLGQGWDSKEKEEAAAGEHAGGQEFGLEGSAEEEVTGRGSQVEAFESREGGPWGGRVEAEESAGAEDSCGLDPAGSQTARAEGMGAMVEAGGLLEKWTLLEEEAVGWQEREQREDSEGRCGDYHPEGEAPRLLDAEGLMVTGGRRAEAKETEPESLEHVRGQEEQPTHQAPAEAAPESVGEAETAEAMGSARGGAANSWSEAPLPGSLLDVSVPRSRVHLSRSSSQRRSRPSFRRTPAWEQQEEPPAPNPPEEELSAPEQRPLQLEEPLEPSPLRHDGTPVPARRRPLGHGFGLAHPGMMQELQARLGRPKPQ
UniProt Q92974: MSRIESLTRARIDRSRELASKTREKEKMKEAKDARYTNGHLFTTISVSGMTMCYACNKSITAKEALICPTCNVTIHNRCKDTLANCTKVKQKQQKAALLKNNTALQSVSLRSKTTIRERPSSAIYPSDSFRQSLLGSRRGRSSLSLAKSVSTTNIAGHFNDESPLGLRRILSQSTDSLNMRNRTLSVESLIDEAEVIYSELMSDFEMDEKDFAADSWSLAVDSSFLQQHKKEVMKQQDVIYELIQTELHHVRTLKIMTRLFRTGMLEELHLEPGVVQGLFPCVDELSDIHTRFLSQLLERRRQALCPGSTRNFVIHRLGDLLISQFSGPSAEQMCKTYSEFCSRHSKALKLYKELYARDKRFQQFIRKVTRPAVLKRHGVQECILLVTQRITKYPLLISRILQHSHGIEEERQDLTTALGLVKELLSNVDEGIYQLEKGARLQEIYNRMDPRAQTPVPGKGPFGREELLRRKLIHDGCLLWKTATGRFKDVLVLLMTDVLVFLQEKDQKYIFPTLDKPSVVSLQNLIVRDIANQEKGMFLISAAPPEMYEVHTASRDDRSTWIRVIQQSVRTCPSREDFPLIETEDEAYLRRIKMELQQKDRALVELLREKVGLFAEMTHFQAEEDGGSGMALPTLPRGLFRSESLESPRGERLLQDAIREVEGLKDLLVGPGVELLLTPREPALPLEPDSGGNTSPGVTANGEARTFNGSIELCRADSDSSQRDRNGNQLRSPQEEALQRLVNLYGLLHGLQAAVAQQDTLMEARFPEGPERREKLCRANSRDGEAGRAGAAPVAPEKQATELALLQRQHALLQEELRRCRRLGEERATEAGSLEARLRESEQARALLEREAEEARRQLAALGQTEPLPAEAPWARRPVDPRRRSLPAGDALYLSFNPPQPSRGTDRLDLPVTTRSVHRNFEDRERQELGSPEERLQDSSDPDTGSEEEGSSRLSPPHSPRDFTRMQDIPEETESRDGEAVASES
UniProt Q9H993: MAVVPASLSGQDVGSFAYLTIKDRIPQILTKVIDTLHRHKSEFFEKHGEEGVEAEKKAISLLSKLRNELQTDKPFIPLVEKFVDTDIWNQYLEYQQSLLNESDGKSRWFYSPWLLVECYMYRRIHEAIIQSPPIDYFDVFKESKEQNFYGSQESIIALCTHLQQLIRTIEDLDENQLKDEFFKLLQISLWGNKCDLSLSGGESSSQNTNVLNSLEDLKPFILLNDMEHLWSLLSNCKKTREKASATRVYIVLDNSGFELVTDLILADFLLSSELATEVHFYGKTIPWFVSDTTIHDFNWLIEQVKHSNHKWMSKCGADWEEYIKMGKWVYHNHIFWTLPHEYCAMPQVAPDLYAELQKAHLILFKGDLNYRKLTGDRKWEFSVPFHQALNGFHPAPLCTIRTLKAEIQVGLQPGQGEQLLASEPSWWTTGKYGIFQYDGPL

This is one part of the list.
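Further: competitive chemoproteomic profiling in live THP-1 cells with an iodoacetamide desthiobiotin (IA-DTB) probe, comparing probe-labelled peptide intensities in compound-treated cells against DMSO-treated controls.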

Compound in one experiment: CC1Cc2ccccc2N1C(=O)C1CCCN(C1)C(=O)CCl (mixture of isomers) [TRIM25 ligand 11 (diastereomer mixture)]
The experiment can be described thus: probe-labelled cysteine peptide fold change vs DMSO (competition) (log2 fold change); higher = less target engagement (more negative = stronger competition). The note with it: 10 µM; THP-1; incubation time: 4 h.
On to “ARFGEF1_Q9Y6D6_1050_CISQLELAQLIGTGVKPR (UniProt Q9Y6D6)”, for which the “probe-labelled cysteine peptide fold change” value is -0.205.
Regarding “ARIH1_Q9Y4X5_418_YLFYCNR (UniProt Q9Y4X5)”, the “probe-labelled cysteine peptide fold change” value was found to be 0.0974.
Still for that read-out and setting: next, “ARFGEF1_Q9Y6D6_1685_LLDCLLESHR (UniProt Q9Y6D6)”: 0.0498.
On the same count and under the same terms, next, “ARHGAP19_Q14CB8_359_VDSCPHQEETQHHTEEALR (UniProt Q14CB8)”: 0.122; “ARHGDIB_P52566_76_LTLVCESAPGPITMDLTGDLEALKK (UniProt P52566)”: -0.0734; “ARPC1B_O15143_227_VAWVSHDSTVCLADADKK (UniProt O15143)”: 0.153.
“ARMC6_Q6NXE6_484_DLGCHVELR (UniProt Q6NXE6)”: the “probe-labelled cysteine peptide fold change” value is -0.0195.
The same measure, in the same setting: next, “ARL14EP_Q8N8R7_119_CTQIINGSVDVDTEDRQK (UniProt Q8N8R7)”: 0.0209; “ARAP1_Q96P48_774_RWCVLGDGVLSYFENER (UniProt Q96P48)”: -0.154; “ARHGEF40_Q8TER5_1233_EAGPELSSECR (UniProt Q8TER5)”: 0.0578.
Same read-out and setting: next, “ARID2_Q68CP9_1634_KPGQNFMCLWQSCK (UniProt Q68CP9)”: -0.094.
In the case of “ARHGEF40_Q8TER5_1262_GCEIDLK (UniProt Q8TER5)”, the “probe-labelled cysteine peptide fold change” value amounted to 0.0307.
Consider “ARIH2_O95376_188_DGVGVGVSCMAQDCPLR (UniProt O95376)”, for which the “probe-labelled cysteine peptide fold change” value was -0.0824.
Same read-out and setting: next, “ARHGAP18_Q8N392_637_CLDDDTYMK (UniProt Q8N392)”: 0.0299; “ARCN1_P48444_441_RNTLEWCLPVIDAK (UniProt P48444)”: -0.0146; “APPL1_Q9UKG1_183_QHQTMMHYFCALNTLQYK (UniProt Q9UKG1)”: 0.117.
Turning to “ARID2_Q68CP9_1814_CLYELNFTVQSK (UniProt Q68CP9)”, the “probe-labelled cysteine peptide fold change” value is -0.00908.
Take “ARPC1B_O15143_26_DRTQIAICPNNHEVHIYEK (UniProt O15143)”: the “probe-labelled cysteine peptide fold change” value is -0.0132.
“ARHGAP30_Q7Z6I6_449_GLECPALQHRPSPASGPGPGPGLGPGPPDEK (UniProt Q7Z6I6)”: the “probe-labelled cysteine peptide fold change” value worked out at 0.0307.
Still for that read-out and setting: for “ARHGEF1_Q92888_752_KNWCALITETAGSLK (UniProt Q92888)” the value was -0.437.
Consider “ARHGEF6_Q15052_530_IVVHCNNNQDFQEWLEQLNR (UniProt Q15052)”, for which the “probe-labelled cysteine peptide fold change” value was determined as 0.162.
As to “ARMC8_Q8IUR7_578_EQTLCILANIADGTTAK (UniProt Q8IUR7)”, the “probe-labelled cysteine peptide fold change” value was 0.102.
“ARHGEF6_Q15052_25_TICDPEEFLK (UniProt Q15052)”: the “probe-labelled cysteine peptide fold change” value was -0.118.
The same measure, in the same setting: next, “ARHGEF1_Q92888_595_EKVELAAECCR (UniProt Q92888)”: -0.216; “ARPC1B_O15143_227_VAWVSHDSTVCLADADK (UniProt O15143)”: 0.316; “APOBR_Q0VD83_149_AGSGACQDR (UniProt Q0VD83)”: -0.136.
“ARMC5_Q96C12_273_ACAEQLSLGGGLGPLVSLASHPK (UniProt Q96C12)”: the “probe-labelled cysteine peptide fold change” value was -0.155.
Still for that read-out and setting: for “ARID2_Q68CP9_382_GMEILGNLCK (UniProt Q68CP9)” the value was -0.000335; for “ARCN1_P48444_441_NTLEWCLPVIDAK (UniProt P48444)”, -0.159; for “ARHGAP25_P42331_154_VAGTPCGVFGQR (UniProt P42331)”, 0.0288.
Still for that read-out and setting: for “ARHGEF2_Q92974_306_RQALCPGSTR (UniProt Q92974)” the value was 0.0447; for “ARMC8_Q8IUR7_3_ACLLETPIR (UniProt Q8IUR7)”, 0.121.
Consider “ARHGAP25_P42331_292_DNYSLLSYICR (UniProt P42331)”, for which the “probe-labelled cysteine peptide fold change” value is 0.00187.
Consider “APPL1_Q9UKG1_570_LTFPLPCVVLYATHQENK (UniProt Q9UKG1)”, for which the “probe-labelled cysteine peptide fold change” value is -0.28.
For “ARIH1_Q9Y4X5_362_DGGCNHMVCR (UniProt Q9Y4X5)”, the “probe-labelled cysteine peptide fold change” value was -0.0147.
The same measure, in the same setting: next, “ARIH2_O95376_323_HDFCWMCLGDWK (UniProt O95376)”: 0.00756; “APPL1_Q9UKG1_368_KDHEEWICTINNISK (UniProt Q9UKG1)”: -0.0696.
Still for that read-out and setting: for “ARMT1_Q9H993_159_EQNFYGSQESIIALCTHLQQLIR (UniProt Q9H993)” the value was 0.176.

Still in this experiment, the particulars now being: 50 µM; THP-1; incubation time: 4 h.
As to “ARFGEF1_Q9Y6D6_1050_CISQLELAQLIGTGVKPR (UniProt Q9Y6D6)”, the “probe-labelled cysteine peptide fold change” value was -0.131.
The same measure, in the same setting: for “ARIH1_Q9Y4X5_418_YLFYCNR (UniProt Q9Y4X5)” the value was 0.149; for “ARFGEF1_Q9Y6D6_1685_LLDCLLESHR (UniProt Q9Y6D6)”, 0.0246; for “ARHGAP19_Q14CB8_359_VDSCPHQEETQHHTEEALR (UniProt Q14CB8)”, 0.0883.
“ARHGDIB_P52566_76_LTLVCESAPGPITMDLTGDLEALKK (UniProt P52566)”: the “probe-labelled cysteine peptide fold change” value turned out to be 0.203.
“ARPC1B_O15143_227_VAWVSHDSTVCLADADKK (UniProt O15143)”: the “probe-labelled cysteine peptide fold change” value was -0.0521.
On the same count and under the same terms, next, “ARMC6_Q6NXE6_484_DLGCHVELR (UniProt Q6NXE6)”: -0.0823; “ARL14EP_Q8N8R7_119_CTQIINGSVDVDTEDRQK (UniProt Q8N8R7)”: 0.301.
Still for that read-out and setting: for “ARAP1_Q96P48_774_RWCVLGDGVLSYFENER (UniProt Q96P48)” the value was 0.0578; for “ARHGEF40_Q8TER5_1233_EAGPELSSECR (UniProt Q8TER5)”, 0.0509.
“ARID2_Q68CP9_1634_KPGQNFMCLWQSCK (UniProt Q68CP9)”: the “probe-labelled cysteine peptide fold change” value was -0.158.
On the same count and under the same terms, for “ARHGEF40_Q8TER5_1262_GCEIDLK (UniProt Q8TER5)” the value was 0.0923; for “ARIH2_O95376_188_DGVGVGVSCMAQDCPLR (UniProt O95376)”, -0.0406; for “ARHGAP18_Q8N392_637_CLDDDTYMK (UniProt Q8N392)”, -0.0653.
In the case of “ARCN1_P48444_441_RNTLEWCLPVIDAK (UniProt P48444)”, the “probe-labelled cysteine peptide fold change” value was 0.00634.
On the same count and under the same terms, next, “APPL1_Q9UKG1_183_QHQTMMHYFCALNTLQYK (UniProt Q9UKG1)”: -0.139.
Still for that read-out and setting: for “ARID2_Q68CP9_1814_CLYELNFTVQSK (UniProt Q68CP9)” the value was 0.103; for “ARPC1B_O15143_26_DRTQIAICPNNHEVHIYEK (UniProt O15143)”, 0.0123; for “ARHGAP30_Q7Z6I6_449_GLECPALQHRPSPASGPGPGPGLGPGPPDEK (UniProt Q7Z6I6)”, -0.316.
For “ARHGEF1_Q92888_752_KNWCALITETAGSLK (UniProt Q92888)”, the “probe-labelled cysteine peptide fold change” value was -0.331.
Same read-out and setting: for “ARHGEF6_Q15052_530_IVVHCNNNQDFQEWLEQLNR (UniProt Q15052)” the value was 0.239.
The same measure, in the same setting: for “ARMC8_Q8IUR7_578_EQTLCILANIADGTTAK (UniProt Q8IUR7)” the value was 0.0992; for “ARHGEF6_Q15052_25_TICDPEEFLK (UniProt Q15052)”, -0.121.
For the target “ARHGEF1_Q92888_595_EKVELAAECCR (UniProt Q92888)”, the “probe-labelled cysteine peptide fold change” value was found to be 0.00529.
On the same count and under the same terms, next, “ARPC1B_O15143_227_VAWVSHDSTVCLADADK (UniProt O15143)”: 0.0213; “APOBR_Q0VD83_149_AGSGACQDR (UniProt Q0VD83)”: -0.202.
On the same count and under the same terms, for “ARMC5_Q96C12_273_ACAEQLSLGGGLGPLVSLASHPK (UniProt Q96C12)” the value was 0.0269.
“ARID2_Q68CP9_382_GMEILGNLCK (UniProt Q68CP9)”: the “probe-labelled cysteine peptide fold change” value turned out to be 0.149.
On the same count and under the same terms, next, “ARCN1_P48444_441_NTLEWCLPVIDAK (UniProt P48444)”: -0.0281; “ARHGAP25_P42331_154_VAGTPCGVFGQR (UniProt P42331)”: -0.103.
Still for that read-out and setting: next, “ARHGEF2_Q92974_306_RQALCPGSTR (UniProt Q92974)”: 0.106; “ARMC8_Q8IUR7_3_ACLLETPIR (UniProt Q8IUR7)”: -0.179; “ARHGAP25_P42331_292_DNYSLLSYICR (UniProt P42331)”: -0.0581.
“APPL1_Q9UKG1_570_LTFPLPCVVLYATHQENK (UniProt Q9UKG1)”: the “probe-labelled cysteine peptide fold change” value worked out at 0.115.
The same measure, in the same setting: next, “ARIH1_Q9Y4X5_362_DGGCNHMVCR (UniProt Q9Y4X5)”: -0.0438; “ARIH2_O95376_323_HDFCWMCLGDWK (UniProt O95376)”: -0.0543; “APPL1_Q9UKG1_368_KDHEEWICTINNISK (UniProt Q9UKG1)”: -0.109.
As for “ARMT1_Q9H993_159_EQNFYGSQESIIALCTHLQQLIR (UniProt Q9H993)”, the “probe-labelled cysteine peptide fold change” value was 0.292.
